Source: PubChem BioAssay AID504808 (Drosophila RNAi Screening Center, 2011)

Aim: 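Genes whose loss lifts activity of an E2F-responsive reporter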 (primary screen)
Cells: Drosophila S2 cells
Reagent: long dsRNA against Drosophila genes
Measurement: 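Firefly luciferase driven by E2F sites, normalised to Renilla luciferase on the same minimal promoter, measured by plate reader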
Reading the numbers: E2F firefly: higher = more E2F reporter activity; Renilla normaliser: higher = more normaliser reporter signal
Hit rule: 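a knock-down counted as active when the firefly/Renilla E2F signal rose above 50%, a threshold chosen arbitrarily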
The deposit covers about 21,000 reagents; this is an unselected part of those with a known target gene and a result. Over the whole deposit, 18 (0.084%) got an active call. 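Raw counts without plate normalisation, one of two replicates; the ratio scores behind the calls were not deposited.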 The numbers tell different reagents against one gene apart. A plus sign joins genes that one reagent is predicted to hit. Not stated in the record: the amount of reagent, the time to read-out.

Silencing of CG18130 gave: E2F firefly, rep 1 = 1.34e5; Renilla normaliser, rep 1 = 5701; inactive.
After knock-down of GILT3, the screen gave E2F firefly, rep 1 = 1.03e5; Renilla normaliser, rep 1 = 7277; inactive.
After knock-down of CG4270 the results were E2F firefly, rep 1 = 1.68e5; Renilla normaliser, rep 1 = 6582; inactive.
Knock-down of PGRP-SB1 resulted in: E2F firefly, rep 1 = 1.48e5; Renilla normaliser, rep 1 = 7825; inactive.
With knock-down of Oatp58Db, the record shows E2F firefly, rep 1 = 94316; Renilla normaliser, rep 1 = 3668; inactive.
CG9948 gave E2F firefly, rep 1 = 68133; Renilla normaliser, rep 1 = 3675; inactive.
Knock-down of CG31686 (retired record) came out at: E2F firefly, rep 1 = 1.26e5; Renilla normaliser, rep 1 = 5249; inactive.
CG15237 showed E2F firefly, rep 1 = 1.03e5; Renilla normaliser, rep 1 = 4212; inactive.
Silencing of dtn gave: E2F firefly, rep 1 = 63476; Renilla normaliser, rep 1 = 4049; inactive.
Silencing of nod #1 resulted in: E2F firefly, rep 1 = 87581; Renilla normaliser, rep 1 = 2672; inactive.
nod #2 gave E2F firefly, rep 1 = 7944; Renilla normaliser, rep 1 = 844; inactive.
Depletion of CG13398 gave: E2F firefly, rep 1 = 1.49e5; Renilla normaliser, rep 1 = 5185; inactive.

A stretch taken from the entries so far, as a working copy:
nod #1 | E2F firefly, rep 1 = 87581; Renilla normaliser, rep 1 = 2672; outcome = inactive
nod #2 | E2F firefly, rep 1 = 7944; Renilla normaliser, rep 1 = 844; outcome = inactive
CG13398 | E2F firefly, rep 1 = 1.49e5; Renilla normaliser, rep 1 = 5185; outcome = inactive

The list goes on.
Depletion of CG9312 resulted in: E2F firefly, rep 1 = 78796; Renilla normaliser, rep 1 = 3892; inactive.
Depletion of Octbeta3R #1 resulted in: E2F firefly, rep 1 = 1.46e5; Renilla normaliser, rep 1 = 7162; inactive.
With knock-down of Octbeta3R #2 the results were E2F firefly, rep 1 = 1.56e5; Renilla normaliser, rep 1 = 6981; inactive.
Knock-down of Gmer came out at: E2F firefly, rep 1 = 70415; Renilla normaliser, rep 1 = 3249; inactive.
Knock-down of Adck1 gave: E2F firefly, rep 1 = 86003; Renilla normaliser, rep 1 = 3569; inactive.
Knock-down of CG44153 #1 came out at: E2F firefly, rep 1 = 77563; Renilla normaliser, rep 1 = 3355; inactive.
After knock-down of CG44153 #2 the results were E2F firefly, rep 1 = 1.40e5; Renilla normaliser, rep 1 = 5355; inactive.
CG44153 #3 showed E2F firefly, rep 1 = 1.58e5; Renilla normaliser, rep 1 = 4782; inactive.
Knock-down of CG44153 #4 came out at: E2F firefly, rep 1 = 1.57e5; Renilla normaliser, rep 1 = 5304; inactive.
With knock-down of Rdh1, the screen gave E2F firefly, rep 1 = 3312; Renilla normaliser, rep 1 = 177; inactive.
Against CG15449 the deposit lists E2F firefly, rep 1 = 1.36e5; Renilla normaliser, rep 1 = 7108; inactive.
Depletion of His2B:CG33894 + His2B:CG33872 + His2B:CG33902 + 20 more gave: E2F firefly, rep 1 = 56426; Renilla normaliser, rep 1 = 5418; inactive.
Knock-down of LysRS came out at: E2F firefly, rep 1 = 7634; Renilla normaliser, rep 1 = 748; inactive.
Knock-down of 5-HT2B #1 resulted in: E2F firefly, rep 1 = 1.49e5; Renilla normaliser, rep 1 = 8801; inactive.
5-HT2B #2 gave E2F firefly, rep 1 = 1.43e5; Renilla normaliser, rep 1 = 7614; inactive.
With knock-down of CG15721, the screen gave E2F firefly, rep 1 = 56207; Renilla normaliser, rep 1 = 4101; inactive.
